Record: PubChem BioAssay AID1159578 (Peter MacCallum Cancer Centre, 2015)

Aim: 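Knock-downs that alter how fast lymphatic endothelial cells migrate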 (primary screen)
Cell system: human lymphatic endothelial cells
Reagent: siRNA pool against human genes, 40 nM
Duration: 48 h after transfection
Detection: 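Cells stained with dye and imaged after a scratch; covered wound area and nuclei counted, duplicates averaged, migration set against mock wells and turned into a robust z-score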
Reading the numbers: migration robust z-score: higher = faster migration into the scratch; migration relative to mock: higher = more scratch area covered than mock; nuclei per well: higher = more cells in the well
Active means: 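Migration changed when robust z exceeds 2 or falls below -2 and mean nuclei number is at least 3300; otherwise not called changed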
Meaning of the calls: active = migration changed; inactive = no migration change, or too few cells
Shown is one part, drawn at random, of about 18,000 reagents. In the full data, about 1,030 (5.7%) are marked active. 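Inactive calls also include pools with fewer than 3300 nuclei, whose migration was not assessed.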 The raw values are shown without normalisation.

gene | migration robust z-score | migration class with cell-count check | migration relative to mock | nuclei per well, duplicate mean | outcome
SDC3 | 1.36 | migration z between -2 and 2; enough cells | 1.23 | 6272 | inactive
ESRRA | 0.18 | migration z between -2 and 2; enough cells | 0.84 | 6041 | inactive
CDC42BPB | 0.21 | migration z between -2 and 2; enough cells | 0.84 | 6032 | inactive
CASP7 | -0.8 | migration z between -2 and 2; enough cells | 0.65 | 5516 | inactive
BEND7 | -0.3 | migration z between -2 and 2; enough cells | 0.8 | 4840 | inactive
VKORC1L1 | 0.26 | migration z between -2 and 2; enough cells | 0.96 | 3672 | inactive
EPSTI1 | 0.6 | migration z between -2 and 2; enough cells | 1.04 | 5166 | inactive
TWF1 | 0.93 | migration z between -2 and 2; enough cells | 0.98 | 6119 | inactive
MTFMT | 0 | migration z between -2 and 2; enough cells | 0.8 | 5190 | inactive
TMBIM6 | 1.02 | migration z between -2 and 2; enough cells | 1.16 | 5292 | inactive
ELL2 | -0.54 | migration z between -2 and 2; enough cells | 0.74 | 6647 | inactive
BTNL3 | 0.31 | migration z between -2 and 2; enough cells | 0.96 | 5756 | inactive
ARRDC5 | 0.08 | migration z between -2 and 2; enough cells | 0.9 | 6005 | inactive
OR6A2 | -0.7 | migration z between -2 and 2; enough cells | 0.7 | 5487 | inactive
LMBR1 | -1.27 | migration z between -2 and 2; enough cells | 0.56 | 3961 | inactive
TULP2 | -0.36 | migration z between -2 and 2; enough cells | 0.74 | 4447 | inactive
NRBP1 | 0.6 | migration z between -2 and 2; enough cells | 0.92 | 5578 | inactive
TAS2R38 | -1.6 | migration z between -2 and 2; enough cells | 0.48 | 3620 | inactive
RGL1 | -0.47 | migration z between -2 and 2; enough cells | 0.72 | 5970 | inactive
MARCHF5 | -0.18 | migration z between -2 and 2; enough cells | 0.77 | 5157 | inactive
JHY | -2.4 | migration z below -2; enough cells | 0.26 | 5744 | active
THRB | -2.88 | under 3300 nuclei; migration not judged | 0.25 | 2667 | inactive
MED14 | -1.27 | migration z between -2 and 2; enough cells | 0.56 | 4927 | inactive
OR10H2 | 0.12 | migration z between -2 and 2; enough cells | 0.92 | 5160 | inactive
LSR | -2.62 | migration z below -2; enough cells | 0.3 | 5516 | active
INSRR | 1.09 | migration z between -2 and 2; enough cells | 1.02 | 6994 | inactive
VCY | -0.32 | migration z between -2 and 2; enough cells | 0.8 | 5216 | inactive
PIWIL3 | 0.4 | migration z between -2 and 2; enough cells | 0.99 | 6089 | inactive
UGCG | 0.06 | migration z between -2 and 2; enough cells | 0.82 | 6149 | inactive
PRMT6 | -1.4 | migration z between -2 and 2; enough cells | 0.53 | 5836 | inactive
HARBI1 | -1.39 | migration z between -2 and 2; enough cells | 0.53 | 6307 | inactive
EIF4A1 | -0.98 | migration z between -2 and 2; enough cells | 0.62 | 5922 | inactive
COL22A1 | 0.17 | migration z between -2 and 2; enough cells | 0.93 | 5556 | inactive
OR5K3 | 0.57 | migration z between -2 and 2; enough cells | 1.04 | 5756 | inactive
TRIM48 | 1.48 | migration z between -2 and 2; enough cells | 1.09 | 6136 | inactive
STARD6 | 0.55 | migration z between -2 and 2; enough cells | 1.03 | 5690 | inactive
TEDC1 | 0.86 | migration z between -2 and 2; enough cells | 1.1 | 5564 | inactive
SLC10A3 | -0.35 | migration z between -2 and 2; enough cells | 0.79 | 4484 | inactive

Not a retest: entries from further up.
gene | migration robust z-score | migration class with cell-count check | migration relative to mock | nuclei per well, duplicate mean | outcome
INSRR | 1.09 | migration z between -2 and 2; enough cells | 1.02 | 6994 | inactive
VCY | -0.32 | migration z between -2 and 2; enough cells | 0.8 | 5216 | inactive
PIWIL3 | 0.4 | migration z between -2 and 2; enough cells | 0.99 | 6089 | inactive
UGCG | 0.06 | migration z between -2 and 2; enough cells | 0.82 | 6149 | inactive
PRMT6 | -1.4 | migration z between -2 and 2; enough cells | 0.53 | 5836 | inactive
HARBI1 | -1.39 | migration z between -2 and 2; enough cells | 0.53 | 6307 | inactive
EIF4A1 | -0.98 | migration z between -2 and 2; enough cells | 0.62 | 5922 | inactive
COL22A1 | 0.17 | migration z between -2 and 2; enough cells | 0.93 | 5556 | inactive
OR5K3 | 0.57 | migration z between -2 and 2; enough cells | 1.04 | 5756 | inactive
TRIM48 | 1.48 | migration z between -2 and 2; enough cells | 1.09 | 6136 | inactive

The results go on.
gene | migration robust z-score | migration class with cell-count check | migration relative to mock | nuclei per well, duplicate mean | outcome
UPP2 | 1.12 | migration z between -2 and 2; enough cells | 1.02 | 6050 | inactive
ABTB2 | -0.78 | migration z between -2 and 2; enough cells | 0.68 | 5607 | inactive
IP6K3 | -2.34 | migration z below -2; enough cells | 0.36 | 4488 | active
RPSA | -0.69 | migration z between -2 and 2; enough cells | 0.7 | 4896 | inactive
SLC75A1 | -0.39 | migration z between -2 and 2; enough cells | 0.78 | 4129 | inactive
TMEM86A | -0.16 | migration z between -2 and 2; enough cells | 0.84 | 6748 | inactive
BZW2 | 1.12 | migration z between -2 and 2; enough cells | 1.02 | 5241 | inactive
TSEN15 | 0.04 | migration z between -2 and 2; enough cells | 0.9 | 6489 | inactive
CYGB | 0.5 | migration z between -2 and 2; enough cells | 1.02 | 4976 | inactive
CFAP221 | 2.02 | migration z above 2; enough cells | 1.39 | 5448 | active
WDR41 | 0.92 | migration z between -2 and 2; enough cells | 1.12 | 5934 | inactive
MDM4 | 0.86 | migration z between -2 and 2; enough cells | 0.97 | 6728 | inactive
COL18A1 | -0.53 | migration z between -2 and 2; enough cells | 0.75 | 4871 | inactive
OR5M1 | -0.26 | migration z between -2 and 2; enough cells | 0.82 | 6450 | inactive
OR51F1 | -0.11 | migration z between -2 and 2; enough cells | 0.86 | 6040 | inactive
ITPR1 | 2.34 | migration z above 2; enough cells | 1.25 | 5870 | active
CCDC43 | -0.46 | migration z between -2 and 2; enough cells | 0.77 | 6352 | inactive
HAT1 | 1.03 | migration z between -2 and 2; enough cells | 1 | 6816 | inactive
ART5 | -0.86 | migration z between -2 and 2; enough cells | 0.64 | 5195 | inactive
